Assay results taken from patent US12564600B2, “System for enhancing therapeutic compliance of the anti-cancer compound E7766” (Eisai R&D Management Co., Ltd., priority 2019, dated 2026).

Assay: Physicochemical properties and ECCS classification of Compound 1

Question: With `O=[P@]1(S)OC[C@H]2O[C@@H]3[C@H](F)[C@@H]2O[P@](=O)(S)OC[C@H]2O[C@H]([C@H](F)[C@@H]2O1)n1cnc2c(ncnc21)NC/C=C/CNc1ncnc2c1ncn23` [Compound 1] as the compound, how does the “Extended Clearance Classification System class” value (concluded from review of the compound) read?
Answer: Class 3B

Question: What about the “ECCS Class” value (scale of Varma et al. 2015) of the same compound?
Answer: 3B
